Series [1] can be described thus: Sensory evaluation of the samples prepared in Example 50 (Example 52). The series is classed as in vivo, human. Further details: key to Intensity of Smell: “+” for slight; “++” for moderate; “+++” for very strong.
Series [2] in a line: Sensory analysis of odor/smell, color and taste of Maillard reaction samples at 22° C. (Examples 55-62). Format: in vivo, human.
For series [3] the following is noted: cited from earlier work.
A short description of series [4]: HPLC/DAD/MS detection of MRI (Amadori) products. As to conditions: LC/MS.
Where [5] appears, read: Table 52.2, 1 ml water + 9 ml Glycerin, 0.67 h, 100° C.
Setting [6] is: Table 52.2, reaction per Table 50.2: 1 ml water + 9 ml Glycerin, 0.67 h, 100° C.
Setting [7] is: Table 52.5, 1 ml water + 9 ml Glycerin, 2.0 h, 120° C.
The mark [8] stands for this setting: Table 52.5, reaction per Table 50.5: 1 ml water + 9 ml Glycerin, 2.0 h, 120° C.
[9] abbreviates: Table 52.7, Glycerin 10 ml, 1 h, 120° C.
The mark [10] stands for this setting: Table 52.7, reaction per Table 50.7: Glycerin 10 ml, 1 h, 120° C.
The mark [11] stands for this setting: negative controls (no carbohydrate source), 10 ml glycerin/water=9:1, 100° C. for 40 minutes.
Where [12] appears, read: before reaction, 10 ml KH2PO4, pH 7.8 (Example 57).
Setting [13] is: Table 52.1, 1 ml water + 9 ml Glycerin, 1 h, 100° C.
The mark [14] stands for this setting: Table 52.1, reaction per Table 50.1: 1 ml water + 9 ml Glycerin, 1 h, 100° C.
[15] abbreviates: volatile substances found by GC/MS in RCSE-MRP-CI.
Setting [16] is: after reaction, 10 ml KH2PO4, pH 7.8, 2.5 h, 120° C. (Example 57).

Like-named read-outs stand apart in the source and are kept apart here.

As for `C[C@H](N)C(=O)O` [0.1 mMol Ala], in series [1] (setting [5]), the Color result is listed as “No Color”. The Smell result in series [1] (setting [6]) was “Agar”.
In the case of `O=C[C@H](O)[C@H]1OC(=O)[C@@H](O)[C@H]1O` [0.1 mMol GlucLac], in series [1] (setting [7]), the Color entry is “Almost black”, the “Intensity of Smell” value is reported as “+++” and the Taste result is “Bitter”. In addition, the Smell entry in series [1] (setting [8]) is recorded as “Burnt sugar”.
For the compound `NCCCC[C@H](N)C(=O)O` [0.1 mMol Lys], the Color entry in series [1] (Table 52.3, 1 ml water + 9 ml Glycerin, 0.67 h, 100° C.) is on record as “Brown”. Besides, the Smell entry in series [1] (Table 52.3, reaction per Table 50.3: 1 ml water + 9 ml Glycerin, 0.67 h, 100° C.) was “Popcorn”.
Take `N[C@@H](Cc1ccccc1)C(=O)O` [0.1 mMol Phe]: the Color result in series [1] (setting [5]) was “Slightly Yellow”. Further, in series [1] (setting [7]), the Color entry was “Slightly Yellow” and the Taste entry was “sweet”. The Smell entry in series [1] (setting [8]) is recorded as “Caramel, burnt”.
Turning to `C=C1C[C@@]23CC[C@H]4[C@@](C)(CCC[C@@]4(C)C(=O)O[C@@H]4O[C@H](CO)[C@@H](O)[C@H](O)[C@H]4O)[C@@H]2CC[C@]1(O[C@@H]1O[C@H](CO)[C@@H](O)[C@H](O[C@@H]2O[C@H](CO)[C@@H](O)[C@H](O)[C@H]2O)[C@H]1O[C@@H]1O[C@H](CO)[C@@H](O)[C@H](O)[C@H]1O)C3` [0.05 mMol Reb-A], the Color result in series [1] (setting [5]) is reported as “Slightly Yellow”. Also, the Smell result in series [1] (setting [6]) is recorded as “neutral/unpleasant”.
On to `N[C@@H](Cc1ccccc1)C(=O)O` [3.3 mMol Phe], for which the Color entry in series [1] (Table 52.6, Glycerin 10 ml, 100° C., 5 min) is “No color”; in series [1] (Table 52.6, Glycerin 10 ml, 100° C., 10 min), “No color”; in series [1] (Table 52.6, Glycerin 10 ml, 100° C., 20 min), “Slightly Yellow”; in series [1] (setting [9]), “Brown”. In addition, the Smell entry is on record as “Slightly bloomy” in series [1] (Table 52.6, reaction per Table 50.6: Glycerin 10 ml, 100° C., 5 min) and “flowery/bloomy” in series [1] (setting [10]).
For `C[C@H](N)C(=O)O` [8.91 mg Ala], in series [2] (setting [11]), the Color result was “No color”; the Smell entry is “Neutral, slightly Agar”; the Taste result is given as “Slightly sweet”.
Regarding `OC[C@H]1OC(O)[C@H](O)[C@@H](O)[C@@H]1O` (stereo partly shown) [9 mg Glucose], in series [2] (setting [12]), the Color result is reported as “No color”, the Smell result is given as “neutral” and the Taste entry was “Sweet”.
As for `OC[C@H]1OC(O)[C@H](O)[C@@H](O)[C@@H]1O` (stereo partly shown) [10 mMol Glu], the Color entry in series [1] (Table 52.6, Glycerin 10 ml, 100° C., 40 min) is given as “Slightly Yellow”; in series [1] (setting [9]), “No color”. For the same compound, in series [1] (setting [10]), the Smell entry is “Slightly Caramel”.
On to `N[C@@H](CO)C(=O)O` [10.5 mg Ser], for which, in series [2] (setting [11]), the Color result is given as “Slightly Yellow”, the Smell result is given as “Lotus flower” and the Taste entry is on record as “Slightly sweet”.
Turning to `O=C(O)[C@@H]1CCCN1` [11.5 mg Pro], in series [2] (setting [11]), the Color result is on record as “Slightly Yellow” and the Taste result is on record as “Slightly sweet”.
As to `C[C@@H](O)[C@H](N)C(=O)O` [11.91 mg Thr], in series [2] (setting [11]), the Smell entry was “Vanilla, butter” and the Taste entry is reported as “Slightly sweet”.
In the case of `N[C@@H](CS)C(=O)O` [12.1 mg Cys], in series [2] (setting [11]), the Color result is “Slightly Yellow”, the Smell result was “Unpleasant (sulfur)” and the Taste entry is listed as “Slightly sweet”.
On to `CC[C@H](C)[C@H](N)C(=O)O` [13.11 mg Ile], for which, in series [2] (setting [11]), the Color result is on record as “No color”, the Smell entry is recorded as “Coffee” and the Taste result was “Slightly sweet”.
As for `NCCCC[C@H](N)C(=O)O` [14.7 mg Lys], in series [2] (setting [11]), the Color result is given as “brown”, the Smell result is given as “Popcorn” and the Taste result is reported as “Slightly sweet”.
As to `CSCC[C@H](N)C(=O)O` [14.9 mg Met], in series [2] (setting [11]), the Smell entry was “Sulfuric” and the Taste result was “Slightly sweet”.
Turning to `N[C@@H](Cc1ccccc1)C(=O)O` [16.5 mg Phe], the Color result is recorded as “Slightly Yellow” in series [2] (after reaction, 10 ml KH2PO4, pH 7.8, 2.5 h, 120° C. (Example 58)); “No color” in series [2] (setting [12]); “No color” in series [2] (before reaction, 10 ml KH2PO4, pH 7.8 (Example 58)). Further, the Taste result in series [2] (after reaction, 10 ml KH2PO4, pH 7.8, 2.5 h, 120° C., after dilution 1:20 (Example 58)) is listed as “Sweet”; in series [2] (setting [11]) it was “Slightly sweet”. For the same compound, the Smell entry in series [2] (setting [11]) is reported as “Bloomy, caramel”.
On to `N[C@@H](Cc1ccc(O)cc1)C(=O)O` [18.1 mg Tyr], for which, in series [2] (setting [11]), the Color result was “No color”, the Smell entry is “neutral” and the Taste entry is “Slightly sweet”.
The matching figures for `N[C@@H](Cc1c[nH]c2ccccc12)C(=O)O` [20.42 mg Try]: “Slightly Yellow”, “Unpleasant (fecal)” and “Slightly sweet”.
Turning to `N[C@@H](CCC(=O)O)C(=O)O` [167 mMol Glu], in series [1] (setting [13]), the Color result is on record as “Slightly Yellow” and the Taste result is on record as “Sweet”. Besides, in series [1] (setting [14]), the Smell result is reported as “caramel”.
Consider `CC1(C)[C@@H]2CC[C@H](CO)[C@H]1C2` [(−)-cis-Myrtanol], for which, in series [3] (setting [15]), the “Main Flavor” value is “Flower”.
Regarding `O=C[C@H](O)[C@@H](O)[C@H](O)[C@H](O)C(=O)O` [Glucuronic Acid], the Color entry in series [2] (setting [16]) is given as “Deep Yellow”.
For the compound `O=C1O[C@@H]2[C@@H](O)[C@H](O)O[C@@H]2C1O` (stereo partly shown) [Glucuronolactone], in series [2] (setting [16]), the Color entry was “Deep Yellow”, the Smell result is on record as “Burnt sugar” and the Taste entry was “Bitter”.
In the case of `C=C(C)[C@H]1CC=C(C)CC1` [Limonene], the “Main Flavor” value in series [3] (setting [15]) is reported as “citrus”.
Turning to `N[C@@H](Cc1ccccc1)C(=O)O` [Phe 60 mMol], in series [1] (setting [13]), the Color result is given as “Slightly Yellow” and the Taste result was “Sweet”. In addition, in series [1] (setting [14]), the Smell result was “flowery/bloomy-caramel”.
For the compound `N[C@H](Cc1ccccc1)C(=O)O` [Phe], in series [2] (setting [16]), the Color entry is on record as “Slightly Yellow”; the Smell result was “Caramel, burnt”; the Taste entry is recorded as “sweet”.
For `OCCc1ccccc1` [Phenylethyl Alcohol], the “Main Flavor” value in series [3] (volatile substances found by GC/MS in CSE / RCSE) is “Flower”.
Regarding `C=CC1(C)CCC(C(C)(C)O)O1` (stereo not drawn) [trans-Linalool oxide], the “Main Flavor” value in series [3] (setting [15]) is reported as “Wood”.
As to `CC1=CC[C@@H](C(C)(C)O)CC1` [à-Terpineol], in series [3] (setting [15]), the “Main Flavor” value is on record as “Flower”.
With Asp + Glu, in series [4], the “MRI (Amadori) products detected during the experiments: Detected in Experiments” value is reported as “Yes”.
Still for that read-out and setting: the entry for Phe + Glu is “Yes”.
